{"source": "the supplement of paper PMC12889115", "tested_on": "Salmonella enterica serovar Typhimurium SL1344", "assay": "bacterial growth OD600 after 18 h with compound and polymyxin B; higher = more bacterial growth (less inhibition)", "conditions": "50 µM, Mueller-Hinton broth", "note": "The list shows a part of the results. Values are raw readings; no control value is given beside them.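 Primary screen: polymyxin B was added at a level permeabilizing Salmonella outer membranes while sparing inner membranes. DMSO wells, both with and without polymyxin B, established maximum growth. Plate-to-plate variation meant each plate was ranked on its own, and the lowest-OD600 compounds were selected as hits.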", "data": [{"molecule": "Cc1nc(N(C)C2CCCCC2)ncc1C(C)NC(=O)c1ccoc1C", "note": "(configuration not stated)", "values": [{"measurement": "bacterial growth OD600", "setting": "polymyxin B 1 µg/mL", "value": 0.85}]}, {"molecule": "CO[C@H]1[C@H](NC(=O)c2ccncc2)c2ccccc2C12CCN(C(=O)CCc1ccc(C)cc1)CC2", "values": [{"measurement": "bacterial growth OD600", "setting": "polymyxin B 0.75 µg/mL", "value": 0.851}]}, {"molecule": "Cc1cc(C)c(C(=O)NCc2cccnc2-n2cnc3ccccc32)c(=O)[nH]1", "values": [{"measurement": "bacterial growth OD600", "setting": "polymyxin B 1 µg/mL", "value": 1.03}]}, {"molecule": "O=C(CCCc1cccs1)NC1CCCN(CCc2ccccc2)C1", "note": "(configuration not stated)", "values": [{"measurement": "bacterial growth OD600", "setting": "polymyxin B 1 µg/mL", "value": 0.877}]}, {"molecule": "COc1ccc2[nH]c3c(c2c1)CN(C(=O)Cn1nnnc1CN1CCCC1)CC3", "values": [{"measurement": "bacterial growth OD600", "setting": "polymyxin B 0.75 µg/mL", "value": 0.82}]}, {"molecule": "O=C(c1cn(Cc2cccc3ccccc23)nn1)N1CCN(C(=O)c2cccs2)CC1", "values": [{"measurement": "bacterial growth OD600", "setting": "polymyxin B 1 µg/mL", "value": 0.912}]}, {"molecule": "COC(=O)[C@]1(C)C[C@H](C(=O)NCC(F)(F)F)[C@H](c2ccccc2Cl)N1C", "values": [{"measurement": "bacterial growth OD600", "setting": "polymyxin B 0.75 µg/mL", "value": 0.954}]}, {"molecule": "COc1ccc(CN(Cc2cc3c(OC)ccc(OC)c3nc2N(C)C)C(=O)c2ccc(F)cc2)cc1", "values": [{"measurement": "bacterial growth OD600", "setting": "polymyxin B 0.75 µg/mL", "value": 0.036}]}, {"molecule": "Cc1ccc2c(c1)CN(CCC(=O)NC1CCc3ccccc31)CC(C)O2", "note": "(configuration not stated)", "values": [{"measurement": "bacterial growth OD600", "setting": "polymyxin B 0.75 µg/mL", "value": 0.756}]}, {"molecule": "COCC(=O)NCc1cccnc1N1CCN(c2ccccc2C)CC1", "values": [{"measurement": "bacterial growth OD600", "setting": "polymyxin B 1 µg/mL", "value": 0.8}]}, {"molecule": "COc1ccc(NC2CCCN(C(=O)c3ccc4ncccc4c3)C2)cc1OC", "note": "(configuration not stated)", "values": [{"measurement": "bacterial growth OD600", "setting": "polymyxin B 1 µg/mL", "value": 1.17}]}, {"molecule": "CC(Cc1ccsc1)NC(=O)c1coc(COc2ccc3c(c2)OCO3)n1", "note": "(configuration not stated)", "values": [{"measurement": "bacterial growth OD600", "setting": "polymyxin B 1 µg/mL", "value": 0.872}]}, {"molecule": "Cc1c(CC(=O)NCc2ccon2)c2c(n1Cc1ccccc1F)CCCC2=O", "values": [{"measurement": "bacterial growth OD600", "setting": "polymyxin B 1 µg/mL", "value": 1.18}]}, {"molecule": "Fc1ccc(CNCc2cccnc2N2CCOCC2)cc1F", "values": [{"measurement": "bacterial growth OD600", "setting": "polymyxin B 1 µg/mL", "value": 0.878}]}, {"molecule": "COc1ccc(CN2CC[C@@H](N3CCC(O)CC3)[C@H](O)C2)c(F)c1", "values": [{"measurement": "bacterial growth OD600", "setting": "polymyxin B 0.75 µg/mL", "value": 0.75}]}, {"molecule": "CCOC(=O)C1CCCN(Cc2cn(C)nc2-c2cccc(Cl)c2)C1", "note": "(configuration not stated)", "values": [{"measurement": "bacterial growth OD600", "setting": "polymyxin B 1 µg/mL", "value": 0.843}]}, {"molecule": "COc1cccc(CN2CCN(Cc3c(C)cc(C)cc3-n3cccn3)CC2CCO)c1", "note": "(configuration not stated)", "values": [{"measurement": "bacterial growth OD600", "setting": "polymyxin B 1 µg/mL", "value": 0.555}]}, {"molecule": "CCC1CN(C(=O)c2ccc(NCc3cnn(C)c3)nc2)CCN1C(C)C", "note": "(configuration not stated)", "values": [{"measurement": "bacterial growth OD600", "setting": "polymyxin B 1 µg/mL", "value": 0.821}]}, {"molecule": "c1cnc(N2CCC(C3CCN(C4CCSCC4)C3)CC2)nc1", "note": "(configuration not stated)", "values": [{"measurement": "bacterial growth OD600", "setting": "polymyxin B 0.75 µg/mL", "value": 0.781}]}, {"molecule": "Cc1ccc(C(=O)N2CCC(CCC(=O)NCc3cccnc3)CC2)s1", "values": [{"measurement": "bacterial growth OD600", "setting": "polymyxin B 0.75 µg/mL", "value": 0.833}]}, {"molecule": "C=CCn1cc(CNC2CC(C)(C)Cc3nc(N4CCOCC4)ncc32)c(C)n1", "note": "(configuration not stated)", "values": [{"measurement": "bacterial growth OD600", "setting": "polymyxin B 0.75 µg/mL", "value": 0.804}]}, {"molecule": "CCOC(=O)c1c(C)[nH]c(C(=O)N2CCC3(CCCN(CC4CC4)C3)C2)c1C", "note": "(configuration not stated)", "values": [{"measurement": "bacterial growth OD600", "setting": "polymyxin B 1 µg/mL", "value": 1.23}]}, {"molecule": "CC(=O)N1CCC(C(=O)N2CCCC(Nc3ccc(C)c(C)c3)C2)CC1", "note": "(configuration not stated)", "values": [{"measurement": "bacterial growth OD600", "setting": "polymyxin B 1 µg/mL", "value": 0.902}]}, {"molecule": "COCc1noc(-c2ccc(N3CCC4(CC3)OCCO4)nc2)n1", "values": [{"measurement": "bacterial growth OD600", "setting": "polymyxin B 1 µg/mL", "value": 0.976}]}, {"molecule": "Cc1ccc(CN2CC[C@@H](N3CCN(c4ccccn4)CC3)[C@H](O)C2)s1", "values": [{"measurement": "bacterial growth OD600", "setting": "polymyxin B 1 µg/mL", "value": 0.879}]}, {"molecule": "O=C1OCCN1CCNC(=O)C1(N2CCCCC2)Cc2ccccc2C1", "values": [{"measurement": "bacterial growth OD600", "setting": "polymyxin B 0.75 µg/mL", "value": 0.688}]}, {"molecule": "CCOc1ccccc1CN1CCC(Oc2cc(OC)ccc2C(=O)NCCOC)CC1", "values": [{"measurement": "bacterial growth OD600", "setting": "polymyxin B 1 µg/mL", "value": 1.22}]}, {"molecule": "COC(=O)CCCC(=O)N1CCc2[nH]nc(-c3ccc4c(c3)OCO4)c2C1", "values": [{"measurement": "bacterial growth OD600", "setting": "polymyxin B 0.75 µg/mL", "value": 0.901}]}, {"molecule": "Cn1nccc1C(=O)N1CCC(C2CCN(Cc3ccc(Cl)cc3)C2)CC1", "note": "(configuration not stated)", "values": [{"measurement": "bacterial growth OD600", "setting": "polymyxin B 1 µg/mL", "value": 1.01}]}, {"molecule": "Cc1nc(C)c(C(=O)NCc2cccnc2N(C)Cc2ccccc2)s1", "values": [{"measurement": "bacterial growth OD600", "setting": "polymyxin B 1 µg/mL", "value": 0.772}]}, {"molecule": "OCC1CCCCN1Cc1ccc2c(c1)CN(Cc1cccc3cccnc13)CCO2", "note": "(configuration not stated)", "values": [{"measurement": "bacterial growth OD600", "setting": "polymyxin B 0.75 µg/mL", "value": 0.91}]}, {"molecule": "C=CCS(=O)(=O)N1CCCC(CCc2ccccc2F)C1", "note": "(configuration not stated)", "values": [{"measurement": "bacterial growth OD600", "setting": "polymyxin B 0.75 µg/mL", "value": 0.002}]}]}
